Taken from: PubChem BioAssay AID652259 (Drosophila RNAi Screening Center, 2013)

Aim: 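Genome-wide hunt for genes that control Wingless pathway activity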 (primary screen)
Cell system: Drosophila clone 8 imaginal disc epithelial cells
Reagent: long dsRNA against Drosophila genes
Conditions: pathway stimulated by co-transfected Wingless expression plasmid
Measurement: 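Dual luciferase reads per well after Wingless plasmid stimulation: reporter firefly light and Renilla control light; activity is firefly divided by Renilla, a ratio not deposited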
Reading the numbers: firefly reporter light: higher = more Wg reporter light, before normalisation; Renilla control light: higher = more transfected or surviving cells
Hit rule: 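Strong candidates differ from their plate mean by at least two out of four per-plate statistical tests; weak candidates meet just one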
Calls: active = candidate regulator (raises or lowers reporter); inactive = not a candidate
The screen tested about 22,000 reagents; this is a random part of those with a known target gene and a result. Over the whole deposit, 233 (1.1%) were called active. 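Light values are raw, unnormalised plate reads; the ratio scores behind the reporter calls were not deposited.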 Not given: the amount of reagent, the time to read-out, the dose of the treatment.

CG12817 [DRSC14555] — firefly reporter light, replicate 1: 15749; Renilla control light, replicate 1: 4759; outcome: inactive
Sgs5bis [DRSC16263] — firefly reporter light, replicate 1: 16599; Renilla control light, replicate 1: 5498; outcome: inactive
MICU1 (Mitochondrial calcium uptake 1) [DRSC02752] — firefly reporter light, replicate 1: 8304; Renilla control light, replicate 1: 3352; outcome: inactive
CG13047 [DRSC09928] — firefly reporter light, replicate 1: 12436; Renilla control light, replicate 1: 4438; outcome: inactive
tous (testes of unusual size) [DRSC04464] — firefly reporter light, replicate 1: 8101; Renilla control light, replicate 1: 1795; outcome: inactive
WASp [DRSC15032] — firefly reporter light, replicate 1: 10624; Renilla control light, replicate 1: 3652; outcome: inactive
CG9483 [DRSC03226] — firefly reporter light, replicate 1: 13815; Renilla control light, replicate 1: 3700; outcome: inactive
CG13331 [DRSC06366] — firefly reporter light, replicate 1: 5345; Renilla control light, replicate 1: 2443; outcome: inactive
Pgant7 (Polypeptide N-Acetylgalactosaminyltransferase 7) [DRSC19991] — firefly reporter light, replicate 1: 1483; firefly reporter light, replicate 2: 5691; Renilla control light, replicate 1: 643; Renilla control light, replicate 2: 2112; outcome: inactive

An excerpt from above, showing only “Renilla control light, replicate 1”.
MICU1 (Mitochondrial calcium uptake 1) [DRSC02752]: 3352
CG13047 [DRSC09928]: 4438
tous (testes of unusual size) [DRSC04464]: 1795
WASp [DRSC15032]: 3652

Additional results follow:
CG12164 [DRSC06115] — firefly reporter light, replicate 1: 19336; Renilla control light, replicate 1: 6471; outcome: inactive
CG12164 [DRSC21777] — firefly reporter light, replicate 1: 2.80e5; firefly reporter light, replicate 2: 3.59e5; Renilla control light, replicate 1: 1.67e5; Renilla control light, replicate 2: 1.34e5; outcome: inactive
CG33474 [DRSC05218] — firefly reporter light, replicate 1: 18056; Renilla control light, replicate 1: 14594; outcome: inactive
CG7573 [DRSC10884] — firefly reporter light, replicate 1: 7248; Renilla control light, replicate 1: 2796; outcome: inactive
Lpin (Lipin) [DRSC07241] — firefly reporter light, replicate 1: 4128; Renilla control light, replicate 1: 1395; outcome: inactive
CG30484 [DRSC05457] — firefly reporter light, replicate 1: 14153; Renilla control light, replicate 1: 9635; outcome: inactive
CR10102 (pseudo) [DRSC05963] — firefly reporter light, replicate 1: 4934; Renilla control light, replicate 1: 2226; outcome: inactive
sima (similar) [DRSC17055] — reporter change call, replicate 1: Wg reporter activity raised; firefly reporter light, replicate 1: 11664; Renilla control light, replicate 1: 775; outcome: active
Atac3 (Ada2a-containing complex component 3) [DRSC08579] — firefly reporter light, replicate 1: 5312; Renilla control light, replicate 1: 2315; outcome: inactive
CG42795 [DRSC12772] — firefly reporter light, replicate 1: 3856; Renilla control light, replicate 1: 2249; outcome: inactive
CG42795 [DRSC15533] — firefly reporter light, replicate 1: 12384; Renilla control light, replicate 1: 3236; outcome: inactive
Teh4 (tipE homolog 4) [DRSC08457] — firefly reporter light, replicate 1: 4141; Renilla control light, replicate 1: 2400; outcome: inactive
lncRNA:CR43498 (long non-coding RNA:CR43498) [DRSC17621] — firefly reporter light, replicate 1: 3841; Renilla control light, replicate 1: 1557; outcome: inactive
CG32806 [DRSC21699] — reporter change call, replicate 1: Wg reporter activity raised; firefly reporter light, replicate 1: 8.42e5; firefly reporter light, replicate 2: 8.21e5; Renilla control light, replicate 1: 5.08e5; Renilla control light, replicate 2: 3.62e5; outcome: inactive
CG9760 [DRSC11101] — firefly reporter light, replicate 1: 7369; Renilla control light, replicate 1: 2347; outcome: inactive
shv (shriveled) [DRSC00640] — firefly reporter light, replicate 1: 6220; firefly reporter light, replicate 2: 8907; Renilla control light, replicate 1: 2029; Renilla control light, replicate 2: 3693; outcome: inactive
shv (shriveled) [DRSC22122] — firefly reporter light, replicate 1: 8.15e5; firefly reporter light, replicate 2: 7.51e5; Renilla control light, replicate 1: 3.33e5; Renilla control light, replicate 2: 3.97e5; outcome: inactive
